# Reference: the supplement of paper PMC10849652
# Sequences of proteins named here, by UniProt entry; tags and fusion partners are left off. A change or cut given only in a name is not applied to a line headed by its entry.
# UniProt P56182: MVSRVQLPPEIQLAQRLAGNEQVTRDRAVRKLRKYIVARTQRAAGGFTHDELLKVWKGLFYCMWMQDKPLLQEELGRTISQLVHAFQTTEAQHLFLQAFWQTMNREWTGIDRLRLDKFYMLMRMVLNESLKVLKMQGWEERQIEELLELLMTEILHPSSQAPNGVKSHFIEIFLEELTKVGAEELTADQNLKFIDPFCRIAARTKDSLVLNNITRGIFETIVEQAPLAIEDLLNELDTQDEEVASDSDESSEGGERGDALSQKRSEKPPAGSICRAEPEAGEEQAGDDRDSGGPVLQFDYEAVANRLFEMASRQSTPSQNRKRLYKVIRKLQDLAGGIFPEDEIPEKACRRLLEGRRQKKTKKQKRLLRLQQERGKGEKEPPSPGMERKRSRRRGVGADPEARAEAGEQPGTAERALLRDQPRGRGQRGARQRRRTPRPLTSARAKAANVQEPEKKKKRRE
# UniProt Q9Y265, whole entry, looked up: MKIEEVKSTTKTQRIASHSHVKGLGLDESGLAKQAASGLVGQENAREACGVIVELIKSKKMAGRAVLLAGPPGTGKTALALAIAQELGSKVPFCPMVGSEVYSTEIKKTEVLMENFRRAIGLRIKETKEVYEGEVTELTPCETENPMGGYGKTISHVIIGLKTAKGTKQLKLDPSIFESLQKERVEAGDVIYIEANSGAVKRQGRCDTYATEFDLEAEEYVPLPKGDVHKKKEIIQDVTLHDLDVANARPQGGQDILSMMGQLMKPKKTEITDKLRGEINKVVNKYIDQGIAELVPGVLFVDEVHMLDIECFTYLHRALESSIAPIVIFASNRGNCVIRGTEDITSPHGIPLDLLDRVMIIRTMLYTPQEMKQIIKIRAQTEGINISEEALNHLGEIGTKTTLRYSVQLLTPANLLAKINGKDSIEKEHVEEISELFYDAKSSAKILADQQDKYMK
# UniProt Q8N2Y8: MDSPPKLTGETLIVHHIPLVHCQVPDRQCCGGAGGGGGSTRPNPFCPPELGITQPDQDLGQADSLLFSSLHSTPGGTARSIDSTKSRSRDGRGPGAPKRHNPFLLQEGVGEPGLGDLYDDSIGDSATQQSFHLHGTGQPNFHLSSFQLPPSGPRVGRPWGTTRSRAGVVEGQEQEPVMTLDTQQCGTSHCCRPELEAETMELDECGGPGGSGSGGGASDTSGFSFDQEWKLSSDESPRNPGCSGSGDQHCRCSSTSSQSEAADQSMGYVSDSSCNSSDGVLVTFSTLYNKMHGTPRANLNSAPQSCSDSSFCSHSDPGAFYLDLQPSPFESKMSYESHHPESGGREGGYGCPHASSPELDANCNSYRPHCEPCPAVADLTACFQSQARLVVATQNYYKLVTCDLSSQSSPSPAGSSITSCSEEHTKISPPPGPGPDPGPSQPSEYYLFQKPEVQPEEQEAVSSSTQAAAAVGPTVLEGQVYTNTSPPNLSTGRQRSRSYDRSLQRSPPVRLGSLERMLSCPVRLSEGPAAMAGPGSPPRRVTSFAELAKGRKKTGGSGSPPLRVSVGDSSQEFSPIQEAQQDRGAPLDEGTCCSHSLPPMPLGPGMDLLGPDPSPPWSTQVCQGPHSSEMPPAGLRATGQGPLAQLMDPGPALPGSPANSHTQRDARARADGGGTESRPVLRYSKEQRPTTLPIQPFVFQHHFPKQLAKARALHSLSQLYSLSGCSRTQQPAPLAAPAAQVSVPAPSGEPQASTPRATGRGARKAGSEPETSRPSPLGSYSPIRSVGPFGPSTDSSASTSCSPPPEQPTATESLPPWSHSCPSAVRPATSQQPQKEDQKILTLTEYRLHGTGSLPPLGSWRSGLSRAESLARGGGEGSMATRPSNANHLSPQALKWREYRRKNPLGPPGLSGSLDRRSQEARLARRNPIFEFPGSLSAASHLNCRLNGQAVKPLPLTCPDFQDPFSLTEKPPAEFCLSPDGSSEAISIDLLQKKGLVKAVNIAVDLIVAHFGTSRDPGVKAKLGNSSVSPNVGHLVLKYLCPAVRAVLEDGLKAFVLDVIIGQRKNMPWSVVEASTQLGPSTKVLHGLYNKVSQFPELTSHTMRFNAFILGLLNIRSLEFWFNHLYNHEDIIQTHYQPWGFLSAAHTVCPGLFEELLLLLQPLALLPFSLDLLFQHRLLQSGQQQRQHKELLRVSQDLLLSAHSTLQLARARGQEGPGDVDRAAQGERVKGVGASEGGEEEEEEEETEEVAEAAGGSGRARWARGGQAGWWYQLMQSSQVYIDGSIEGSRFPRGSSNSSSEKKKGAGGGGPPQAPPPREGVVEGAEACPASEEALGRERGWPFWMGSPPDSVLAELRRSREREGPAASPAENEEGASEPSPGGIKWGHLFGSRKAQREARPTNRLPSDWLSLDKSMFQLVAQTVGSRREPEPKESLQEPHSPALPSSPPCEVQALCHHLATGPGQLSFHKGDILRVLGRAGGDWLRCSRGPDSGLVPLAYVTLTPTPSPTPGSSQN
# UniProt Q9P2E9: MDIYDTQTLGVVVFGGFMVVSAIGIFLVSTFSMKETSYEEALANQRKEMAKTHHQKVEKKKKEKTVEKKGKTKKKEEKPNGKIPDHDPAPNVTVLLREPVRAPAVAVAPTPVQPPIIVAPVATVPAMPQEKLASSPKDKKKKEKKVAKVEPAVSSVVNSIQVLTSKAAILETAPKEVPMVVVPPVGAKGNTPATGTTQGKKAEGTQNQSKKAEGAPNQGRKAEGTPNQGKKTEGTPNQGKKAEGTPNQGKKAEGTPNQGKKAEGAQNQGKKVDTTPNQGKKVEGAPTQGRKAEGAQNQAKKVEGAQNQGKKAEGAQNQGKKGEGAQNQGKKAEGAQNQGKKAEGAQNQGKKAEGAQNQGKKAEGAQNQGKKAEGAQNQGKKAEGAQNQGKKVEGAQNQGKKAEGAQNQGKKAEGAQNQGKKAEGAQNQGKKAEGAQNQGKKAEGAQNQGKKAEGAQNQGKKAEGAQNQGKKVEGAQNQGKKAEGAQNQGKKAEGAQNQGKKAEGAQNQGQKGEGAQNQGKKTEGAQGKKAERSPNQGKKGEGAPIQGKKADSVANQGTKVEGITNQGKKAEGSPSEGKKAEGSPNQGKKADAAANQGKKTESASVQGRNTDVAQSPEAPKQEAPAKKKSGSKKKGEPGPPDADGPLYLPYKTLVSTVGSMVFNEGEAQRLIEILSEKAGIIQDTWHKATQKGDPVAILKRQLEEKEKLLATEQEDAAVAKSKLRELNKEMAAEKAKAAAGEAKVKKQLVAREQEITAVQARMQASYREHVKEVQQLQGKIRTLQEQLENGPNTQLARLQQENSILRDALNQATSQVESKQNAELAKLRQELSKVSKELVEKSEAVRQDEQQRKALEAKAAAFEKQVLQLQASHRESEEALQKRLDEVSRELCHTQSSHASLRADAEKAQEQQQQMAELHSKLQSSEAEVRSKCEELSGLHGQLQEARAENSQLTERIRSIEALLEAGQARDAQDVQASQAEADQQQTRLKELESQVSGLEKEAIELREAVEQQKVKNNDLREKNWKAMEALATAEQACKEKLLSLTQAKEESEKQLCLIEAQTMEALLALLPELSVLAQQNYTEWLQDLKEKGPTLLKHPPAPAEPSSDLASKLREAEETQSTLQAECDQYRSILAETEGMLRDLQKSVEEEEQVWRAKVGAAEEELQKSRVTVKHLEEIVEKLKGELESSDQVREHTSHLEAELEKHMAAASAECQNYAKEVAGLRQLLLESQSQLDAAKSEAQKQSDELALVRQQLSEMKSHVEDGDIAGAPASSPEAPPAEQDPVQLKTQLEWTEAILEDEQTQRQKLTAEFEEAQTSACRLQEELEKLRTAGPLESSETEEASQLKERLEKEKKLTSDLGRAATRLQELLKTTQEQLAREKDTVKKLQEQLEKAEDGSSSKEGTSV
# UniProt Q96T51: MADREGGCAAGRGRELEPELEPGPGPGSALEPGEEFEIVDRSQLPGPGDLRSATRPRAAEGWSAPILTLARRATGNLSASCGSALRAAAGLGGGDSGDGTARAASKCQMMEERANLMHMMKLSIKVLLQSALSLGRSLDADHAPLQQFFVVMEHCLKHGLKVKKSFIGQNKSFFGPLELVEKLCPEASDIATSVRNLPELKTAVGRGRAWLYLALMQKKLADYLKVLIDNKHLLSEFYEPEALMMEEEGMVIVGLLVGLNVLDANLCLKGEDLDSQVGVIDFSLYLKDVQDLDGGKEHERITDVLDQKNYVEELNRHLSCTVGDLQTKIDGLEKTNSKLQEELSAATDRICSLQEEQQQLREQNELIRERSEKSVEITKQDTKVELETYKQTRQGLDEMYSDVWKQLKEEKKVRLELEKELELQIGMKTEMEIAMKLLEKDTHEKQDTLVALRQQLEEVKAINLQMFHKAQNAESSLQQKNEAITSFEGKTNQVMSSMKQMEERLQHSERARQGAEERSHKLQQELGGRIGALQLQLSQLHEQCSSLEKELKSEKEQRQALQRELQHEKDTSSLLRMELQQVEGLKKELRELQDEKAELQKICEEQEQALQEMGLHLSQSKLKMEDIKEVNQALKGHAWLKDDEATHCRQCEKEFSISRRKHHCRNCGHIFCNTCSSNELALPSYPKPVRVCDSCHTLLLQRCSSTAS
# UniProt Q9BY42: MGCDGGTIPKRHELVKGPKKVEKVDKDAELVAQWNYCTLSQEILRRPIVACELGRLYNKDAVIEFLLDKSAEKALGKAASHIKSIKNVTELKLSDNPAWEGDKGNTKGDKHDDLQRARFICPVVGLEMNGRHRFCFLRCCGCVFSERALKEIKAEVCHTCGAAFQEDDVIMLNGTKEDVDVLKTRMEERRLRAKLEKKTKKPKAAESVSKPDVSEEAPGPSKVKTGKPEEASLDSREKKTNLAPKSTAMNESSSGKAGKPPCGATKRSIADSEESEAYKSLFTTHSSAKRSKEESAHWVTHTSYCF
# UniProt Q9Y224: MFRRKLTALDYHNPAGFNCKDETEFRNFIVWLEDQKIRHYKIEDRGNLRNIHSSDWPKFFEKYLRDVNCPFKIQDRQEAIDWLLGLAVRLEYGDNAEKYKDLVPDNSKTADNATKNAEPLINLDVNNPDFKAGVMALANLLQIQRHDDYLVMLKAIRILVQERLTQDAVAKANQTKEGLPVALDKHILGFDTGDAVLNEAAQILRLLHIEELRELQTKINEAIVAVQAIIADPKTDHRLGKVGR
# UniProt Q9NQC3: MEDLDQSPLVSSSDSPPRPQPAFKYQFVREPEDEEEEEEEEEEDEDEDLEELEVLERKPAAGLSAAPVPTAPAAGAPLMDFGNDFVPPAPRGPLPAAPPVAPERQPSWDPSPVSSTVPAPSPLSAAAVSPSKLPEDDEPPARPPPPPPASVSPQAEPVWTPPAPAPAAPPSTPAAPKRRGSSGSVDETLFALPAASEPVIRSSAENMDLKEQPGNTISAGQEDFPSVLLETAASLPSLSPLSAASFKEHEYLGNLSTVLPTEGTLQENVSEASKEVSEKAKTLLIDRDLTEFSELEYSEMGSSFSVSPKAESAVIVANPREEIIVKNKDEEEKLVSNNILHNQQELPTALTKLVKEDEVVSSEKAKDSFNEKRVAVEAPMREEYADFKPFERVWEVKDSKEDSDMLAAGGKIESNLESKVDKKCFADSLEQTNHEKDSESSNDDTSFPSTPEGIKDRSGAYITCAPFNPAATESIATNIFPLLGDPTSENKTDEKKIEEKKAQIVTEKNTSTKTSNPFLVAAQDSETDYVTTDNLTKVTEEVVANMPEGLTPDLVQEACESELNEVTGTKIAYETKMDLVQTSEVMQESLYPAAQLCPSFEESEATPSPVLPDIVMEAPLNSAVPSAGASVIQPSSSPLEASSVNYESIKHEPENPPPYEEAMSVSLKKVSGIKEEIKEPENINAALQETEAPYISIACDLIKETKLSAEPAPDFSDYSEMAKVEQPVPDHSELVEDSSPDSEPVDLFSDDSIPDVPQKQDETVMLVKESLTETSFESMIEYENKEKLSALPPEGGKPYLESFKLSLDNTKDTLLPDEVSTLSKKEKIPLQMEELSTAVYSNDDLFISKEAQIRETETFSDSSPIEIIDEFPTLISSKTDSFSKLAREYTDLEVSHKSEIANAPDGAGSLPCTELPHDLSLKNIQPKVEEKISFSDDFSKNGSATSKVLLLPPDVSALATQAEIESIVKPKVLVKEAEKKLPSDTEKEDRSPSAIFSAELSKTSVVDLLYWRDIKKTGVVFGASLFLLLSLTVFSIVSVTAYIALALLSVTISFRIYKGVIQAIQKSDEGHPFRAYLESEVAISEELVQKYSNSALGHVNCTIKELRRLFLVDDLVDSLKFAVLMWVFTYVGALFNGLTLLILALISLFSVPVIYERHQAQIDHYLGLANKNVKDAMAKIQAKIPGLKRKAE
# UniProt P78345: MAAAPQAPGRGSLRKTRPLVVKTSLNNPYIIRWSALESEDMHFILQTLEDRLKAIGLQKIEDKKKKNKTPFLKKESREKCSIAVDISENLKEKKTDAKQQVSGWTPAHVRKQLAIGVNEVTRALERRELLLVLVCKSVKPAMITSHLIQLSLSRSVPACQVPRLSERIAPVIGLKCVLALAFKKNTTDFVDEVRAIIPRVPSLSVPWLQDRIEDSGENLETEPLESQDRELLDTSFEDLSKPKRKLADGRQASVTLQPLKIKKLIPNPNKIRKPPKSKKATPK
# This is one part of the list.
# Compound: CC1=C2C(=CC=C1)N=C(N(C2=O)C3=CC=CC=C3C)CN4C=NC5=C(N=CN=C54)N
# Test: log2 fold change, soluble protein after heating vs DMSO (PISA); higher = thermal stabilisation; K562 lysate, 10 uM; active = over 0.2 and 3.5 SD of the protein, either way, in both replicates (recomputed)
# Method in brief: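 Thermal stability, expressed as log-two fold change relative to solvent controls, is given from duplicates. Crude K562 extract in PBS pH 7.4 with 1 mM MgCl2, at 1 mg/mL protein, was treated with 10 μM compound for 30 min and heated in aliquots for 3 min across 48°C-58°C. After pooling, adjustment to 0.5% NP-40 at 4°C and centrifugation at 21,000xg for 90 min, supernatant protein was measured by TMTpro 16plex LC-MS/MS with channel sums equalised.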
row,Target,log2 fold change
1,RRP1 (UniProt P56182),inactive: 0.001
2,RPS16 (UniProt P62249),inactive: 0.003
3,RUVBL1 (UniProt Q9Y265),inactive: 0.013
4,RPL39P5 (UniProt Q59GN2),inactive: -0.077
5,RUSC2 (UniProt Q8N2Y8),inactive: 0.059
6,RPL9 (UniProt P32969),inactive: 0.004
7,RPS29 (UniProt P62273),inactive: -0.071
8,RRBP1 (UniProt Q9P2E9),inactive: 0.014
9,RUFY1 (UniProt Q96T51),inactive: -0.024
10,RPS5 (UniProt P46782),inactive: -0.033
11,RTTN (UniProt Q86VV8),inactive: -0.289
12,RRP8 (UniProt O43159),inactive: 0.119
13,RTF2 (UniProt Q9BY42),inactive: 0.127
14,RPS20 isoform 2 (UniProt P60866),inactive: -0.027
15,RTRAF (UniProt Q9Y224),inactive: 0.019
16,RSPRY1 (UniProt Q96DX4),inactive: 0.023
17,RTN4 isoform 2 (UniProt Q9NQC3),inactive: 0.017
18,RPS13 (UniProt P62277),inactive: -0.04
19,RPP25 (UniProt Q9BUL9),inactive: 0.142
20,RSL1D1 (UniProt O76021),inactive: -0.018
21,RPP38 (UniProt P78345),inactive: 0.014
22,RPL37 (UniProt P61927),inactive: -0.009
23,RPS18 (UniProt P62269),inactive: 0.024

# Fetched one by one from the list above:
row,Target,log2 fold change
22,RPL37 (UniProt P61927),inactive: -0.009
3,RUVBL1 (UniProt Q9Y265),inactive: 0.013
